This is one part of the list. These are further read-outs of the screen, such as a control signal, another cell line or another target. No call is given for them. Most of these compounds were active or inconclusive in the main read-out, so they are no random draw.
Assay: inhibitors of TNFa-induced NFkB p65 translocation, primary screen, imaging, HUVEC, MLSMR starter and 10KST1 sets (AID 438);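 further: compound added about 3h40 before a 20 min TNFalpha stimulation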
Conditions: HUVEC TNFa-induced p65 nuclear translocation, measured here: nuclei count (cytotoxicity indicator), at 2.08 µM

Row | Compound | cell count
1 | COc1ccc(OCC(=O)OCCN(C)C)cc1 | 413
2 | O=C(O)c1ccc(COCC(F)(F)C(F)F)o1 | 344
3 | COc1ccc(CNC(=O)COC(=O)c2n[nH]c3ccccc23)cc1OC | 604
4 | COc1cc(C2C(C#N)=C(N)Oc3cc(N)ccc32)cc(OC)c1OC (centres undefined) | 379
5 | Cc1cc(C(C)(C)C)c(O)c(C)c1CC1=NCCN1 | 381
6 | O=C(CN(Cc1ccco1)C(=O)CNS(=O)(=O)c1ccc(Cl)cc1)NCc1ccc(F)cc1 | 543
7 | COC(=O)c1ccc(N2C(=O)CC(N3CCN(C(=O)c4ccco4)CC3)C2=O)cc1 (centres undefined) | 495
8 | O=C1[C@@H]2C(c3ccccc3Cl)=NO[C@@H]2C(=O)N1Cc1ccccc1 | 385
9 | CC(C)CCNC(=O)NC(=O)CSc1nnc(COc2ccccc2Cl)o1 | 606
10 | COc1cccc(N2CCN(c3ncnc4c3[nH]c3ccccc34)CC2C)c1 (centres undefined) | 472
11 | Cc1cccc(N2CN=c3s/c(=C\c4ccncc4)c(=O)n3C2)c1 | 421
12 | Clc1ccc(-c2nnc3sc(-c4ccc(Br)o4)nn23)cc1 | 409
13 | CCOC(=O)c1cc2c(=O)n3cccc(C)c3nc2n(CCc2ccccc2)c1=N | 462
14 | CCC(NC(=O)Nc1nnc(C(F)(F)F)s1)(C(F)(F)F)C(F)(F)F | 690

2 of these compounds in another layout.

| Row | Compound | cell count |
| --- | --- | --- |
| 4 | COc1cc(C2C(C#N)=C(N)Oc3cc(N)ccc32)cc(OC)c1OC (centres undefined) | 379 |
| 5 | Cc1cc(C(C)(C)C)c(O)c(C)c1CC1=NCCN1 | 381 |

Reference: PubChem BioAssay
